Assay results from article PMC5398888.
Numbering of substitutions follows the chain as printed. In names and notes the source's numbering stands. These are yes or no findings as the source states them, for the method shown. Binding seen in cells or lysates may run through a third protein. Some binding calls cover weakened binding; strength is not graded here. Sequences can lack the tags named with a protein. One block for each binder: values may come before it.

Key:
[1] = target: T1, FLAG-hFBXL3 (human FBXL3) (human) (UniProt Q9UKT7); test: co-IP; HEK293 cells co-transfected with hCRY2-His-Myc (WT or A260T) and FLAG-hFBXL3, 10 uM MG132 for 6 hr before harvest; complex taken on anti-FLAG M2 affinity gel and eluted with 300 ug/ml 3xFLAG peptide
T1 sequence: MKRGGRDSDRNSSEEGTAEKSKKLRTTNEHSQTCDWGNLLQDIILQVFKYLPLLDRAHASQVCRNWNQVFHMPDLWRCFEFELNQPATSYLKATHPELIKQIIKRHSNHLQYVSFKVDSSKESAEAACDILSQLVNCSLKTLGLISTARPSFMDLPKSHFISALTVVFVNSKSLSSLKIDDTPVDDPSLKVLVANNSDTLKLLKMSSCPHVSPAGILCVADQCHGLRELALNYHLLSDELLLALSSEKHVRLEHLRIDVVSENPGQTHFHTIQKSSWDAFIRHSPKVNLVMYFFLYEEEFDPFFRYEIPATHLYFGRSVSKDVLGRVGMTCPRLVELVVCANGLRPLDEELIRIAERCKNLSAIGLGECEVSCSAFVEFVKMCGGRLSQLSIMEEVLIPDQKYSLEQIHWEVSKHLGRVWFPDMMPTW

[2] = target: T1, FLAG-hFBXL3 (human FBXL3) (human); test: co-IP; FAD competition assay: CRY2-FBXL3 complex from co-transfected HEK293 cells (10 uM MG132, 6 hr) held on anti-FLAG M2 affinity gel; FAD added in 40 ul PBS for 2 hr on ice; released CRY2 in the supernatant, CRY2 still bound to FLAG-FBXL3 eluted with SDS sample buffer

- binding [1]: binds
- binding [2]: binds
B1: hCRY2-A260T-Myc-His (human Cryptochrome 2, A260T) (protein, UniProt Q49AN0 1-593)
chain: MAATVATAAAVAPAPAPGTDSASSVHWFRKGLRLHDNPALLAAVRGARCVRCVYILDPWFAASSSVGINRWRFLLQSLEDLDTSLRKLNSRLFVVRGQPADVFPRLFKEWGVTRLTFEYDSEPFGKERDAAIMKMAKEAGVEVVTENSHTLYDLDRIIELNGQKPPLTYKRFQAIISRMELPKKPVGLVTSQQMESCRAEIQENHDETYGVPSLEELGFPTEGLGPAVWQGGETEALARLDKHLERKAWVANYERPRMNTNSLLASPTGLSPYLRFGCLSCRLFYYRLWDLYKKVKRNSTPPLSLFGQLLWREFFYTAATNNPRFDRMEGNPICIQIPWDRNPEALAKWAEGKTGFPWIDAIMTQLRQEGWIHHLARHAVACFLTRGDLWVSWESGVRVFDELLLDADFSVNAGSWMWLSCSAFFQQFFHCYCPVGFGRRTDPSGDYIRRYLPKLKAFPSRYIYEPWNAPESIQKAAKCIIGVDYPRPIVNHAETSRLNIERMKQIYQQLSRYRGLCLLASVPSCVEDLSHPVAEPSSSQAGSMSSAGPRPLPSGPASPKRKLEAAEEPPGEELSKRARVAELPTPELPSKDA

- binding [1]: binds
- binding [2]: binds
B2: hCRY2-WT-Myc-His (human Cryptochrome 2, wild type) (protein, UniProt Q49AN0 1-593)
chain: B1 chain with T260A
